{"source": "the supplement of paper PMC10338343", "note": "± gives the standard deviation. The list shows a part of the results, in another mix than the full data. Many entries were measured with a wide error.", "data": [{"test_system": "MIWI (PIWIL1) piRISC loaded with L1MC piRNA (30 nt)", "test": "pre-steady-state target cleavage rate (min^-1); higher = faster piRNA-guided slicing of the target", "settings": "guide: L1MC piRNA 5'p-UAACUAAAUACUAUGCAAGCUGUAGGUCCU; auxiliary factor: 500 nM mouse GTSF1", "summary_of_the_method": "(§1)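 A transcribed, DNA-blocked target RNA library (0.1 nM) and 1 nM active affinity-purified piRISC bearing one synthetic guide were incubated in HEPES–potassium acetate buffer at 33 °C for 0–8 or 0–960 min, either with or without 500 nM GTSF1 partner protein. Uncleaved targets were sequenced, normalised to depth and to weakly complementary targets, and pooled over three trials, with k3 capped at 0.0001 min^-1. The pre-steady-state cleavage rate was derived with a burst-and-steady-state fit.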", "values": [{"sequence": "UCGACCUACGCUUGCAUAGUAUUUAGUUA", "pre-steady-state target cleavage rate": "1.45 ± 0.052"}, {"sequence": "UGGACCUACAGCUUGCAAAGUAUUUAGUUA", "pre-steady-state target cleavage rate": "1.36 ± 0.058"}, {"sequence": "UGUACCUACAGCUUGCAUAGUAUUUAGUUA", "pre-steady-state target cleavage rate": "1.34 ± 0.049"}, {"sequence": "AGGAUCCUACAGCUUGCAUAGUAUUUAGUUA", "pre-steady-state target cleavage rate": "1.4 ± 0.068"}]}, {"test_system": "MIWI (PIWIL1) piRISC loaded with L1MC piRNA (30 nt)", "test": "pre-steady-state target cleavage rate (min^-1); MIWI and MILI are mouse PIWI proteins and EfPiwi is from a freshwater sponge; tags in brackets are library labels; higher = faster piRNA-guided slicing of the target", "settings": "guide: L1MC piRNA 5'p-UAACUAAAUACUAUGCAAGCUGUAGGUCCU; auxiliary factor: none (no GTSF1)", "summary_of_the_method": "as §1", "values": [{"sequence": "UCGACCUACAGCUUGCAUAGAUAUUAGUUA", "pre-steady-state target cleavage rate": "0.00108 ± 0.004"}, {"sequence": "UCCUGGAUGUGCUUGCAUAGUAUUAUCAAA [g7:g20:cont:t1A]", "pre-steady-state target cleavage rate": "0.000611 ± 0.0094"}, {"sequence": "UCCACCUACAGCUUGCUAUAGUAUUUAGUUA", "pre-steady-state target cleavage rate": "0.000285 ± 0.0085"}, {"sequence": "UGGACCUACAGCUUGCAAUCUAUUUAGUAA", "pre-steady-state target cleavage rate": "0.00132 ± 0.0035"}, {"sequence": "UCCACCUACAGCUACGAUAGUAUUUAGUAA", "pre-steady-state target cleavage rate": "0.000198 ± 0.018"}, {"sequence": "UGGACCUACAGCUUGCAUAGAUAUUUAGUUA", "pre-steady-state target cleavage rate": "0.00142 ± 0.0057"}, {"sequence": "AGGACCUACAGCUUGCAUAGUAAAAAGAAA", "pre-steady-state target cleavage rate": "0.000448 ± 0.01"}, {"sequence": "UGGACCUACAGCUUGCAUAGUUAUUACAAA", "pre-steady-state target cleavage rate": "0.000868 ± 0.0074"}, {"sequence": "AGGACCUACAGCUUGGUUAGUAUUUAGAAA", "pre-steady-state target cleavage rate": "0.00163 ± 0.0035"}, {"sequence": "UCGACCUACAGCUUGCAUUAGUAUUUAGUUA", "pre-steady-state target cleavage rate": "0.00105 ± 0.0073"}, {"sequence": "UCCACCUACAGCAACCAUAGUAUUUAGAAA", "pre-steady-state target cleavage rate": "0.000283 ± 0.0082"}, {"sequence": "UGGACCUACACGAUGCAUAGUAUUUACAAA", "pre-steady-state target cleavage rate": "0.00099 ± 0.0056"}, {"sequence": "UCGACCUACAGCUACCAUAGUAUUUAGUAA", "pre-steady-state target cleavage rate": "0.00097 ± 0.0056"}, {"sequence": "UGGACCUACAGCAACCAUAGUAUUUAGAAA", "pre-steady-state target cleavage rate": "0.000272 ± 0.0093"}, {"sequence": "UCCUGGAUGUCGAACGUAUGUUUUUAGAUA", "pre-steady-state target cleavage rate": "0.000206 ± 0.015"}, {"sequence": "UGGACCUACAGCUUGGUAAGUAUUUACAAA", "pre-steady-state target cleavage rate": "0.000469 ± 0.011"}, {"sequence": "UCCACCUACAGCUUCCAUAGUAUUUUGUUA", "pre-steady-state target cleavage rate": "0.00112 ± 0.0052"}, {"sequence": "UCCACCUACAGCUUGCAUAGUAUUUGUUA", "pre-steady-state target cleavage rate": "0.00185 ± 0.005"}, {"sequence": "UCCACCUACAGCUACGAUAGUAUUUAGAAA", "pre-steady-state target cleavage rate": "0.000241 ± 0.016"}, {"sequence": "UCGACCUACAGCUUGCAUAGAUAUUACAAA", "pre-steady-state target cleavage rate": "0.000755 ± 0.0089"}, {"sequence": "UCCACCUACAGCUUGCAUAGUAAAUAGUAA", "pre-steady-state target cleavage rate": "0.00166 ± 0.004"}, {"sequence": "UCCACCUACAGCAAGCAUAGUAUUUAGUAA", "pre-steady-state target cleavage rate": "0.00206 ± 0.0026"}, {"sequence": "UCGACCUACAGCUUGCAUAAGUAUUUAGUUA", "pre-steady-state target cleavage rate": "0.00104 ± 0.0069"}, {"sequence": "UCCACCAUCAGCUUGCAUAGUAUUUUCAAA", "pre-steady-state target cleavage rate": "0.00202 ± 0.0034"}, {"sequence": "AGGACCUACAGCUUCCAUAGUUUUUAGUUA", "pre-steady-state target cleavage rate": "0.00179 ± 0.0036"}, {"sequence": "UCCACCUACAGCUUGCAAUGUAUUUUCAAA", "pre-steady-state target cleavage rate": "0.000203 ± 0.017"}, {"sequence": "UCGACCUACAGCUUGCAUAGAUUUUAGAAA", "pre-steady-state target cleavage rate": "0.00108 ± 0.0062"}, {"sequence": "UCCACCUACAGCUUGCAUAGUAUUAUGAAA", "pre-steady-state target cleavage rate": "0.0013 ± 0.0055"}, {"sequence": "UCGACCUACAGCUUGCAAUGUAUUUAGAAA", "pre-steady-state target cleavage rate": "0.000447 ± 0.0045"}, {"sequence": "UCCACCUACAGCUUGCAUGAGUAUUUAGUUA", "pre-steady-state target cleavage rate": "0.000708 ± 0.0094"}, {"sequence": "UCCUCCUACAGCAACCAUAGUAUUUAGUUA", "pre-steady-state target cleavage rate": "0.00144 ± 0.0035"}, {"sequence": "UCCUGGAACACGAUGCAUAGUAUUUAGUAA", "pre-steady-state target cleavage rate": "0.00259 ± 0.004"}, {"sequence": "UCGUGCUACAGCUUGCAUAGUAUUUUCAAA", "pre-steady-state target cleavage rate": "0.00185 ± 0.0036"}, {"sequence": "UCGACCUACAGCUUGCAUACAUAAAUCAAA [g12:g28:cont:t1A]", "pre-steady-state target cleavage rate": "0.00048 ± 0.015"}, {"sequence": "UCCACCUACAGCUUGCAUUCUAUUUAGAAA", "pre-steady-state target cleavage rate": "0.000715 ± 0.0063"}, {"sequence": "UCCACCUACAGCAAGCAUAGUAUUUUCAAA", "pre-steady-state target cleavage rate": "0.000477 ± 0.009"}]}]}
